Source: PubChem BioAssay AID1508600 (Functional Genomics Laboratory (NCATS/FGL), 2020)
Hit rate of the full screen: of about 53,000 sequences, about 3,700 (7%) were called active.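 The calls were made as follows: active = gene knockdowns whose robust z-score for IL-1 alpha signal is at least 2 or at most -2, so actives lie on both sides; inactive = the rest.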 Some of the results follow.

Assay: Components of the Cytosolic LPS Sensing Pathway: Gene Identification via Genome-wide siRNA Screen;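 also: robust z of the log signal after scaling to non-targeting control siRNA wells of the plate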
Conditions: RAW264.7 macrophages, IL-1a HTRF, actives lie on both sides, screened at 100 nM (by protocol), cells primed 5 h with Pam3CSK4 first
How it was run: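 RAW264.7 mouse macrophages reverse-transfected with single siRNAs (100 nM final) for 48h, primed with Pam3CSK4 for 5 hours, then transfected with LipidA for 24 hour. Supernatant IL-1a read by HTRF; values normalized to negative-control median, log-transformed robust z-scores.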

Sequence | z-score
AAAAAUGUCGGAUUCCCAATT against Adgrf3 | inactive: -0.121
GGCAUAUUCCGUUUUUAAATT against Pafah1b1 | inactive: -1.09
GGAGCAGGUGCUUUUGGAUTT against Cat | inactive: 0.546
GGAUACUGUUCCUUUAUAUTT against Slc15a2 | inactive: 0.134
GGAUUCCAUGGACAAAACUTT against Uhrf1bp1l | inactive: 0.63
GGAGAAGUGUUAUCUAUGUTT against Uimc1 | inactive: -0.637
GGAUGAUGUUCUUAAUGCUTT against Exph5 | inactive: 0.154
CGGUUACUUGCUCUCCUCCTT against Tssk5 | inactive: -0.956
CCAUGAAAAACUUAGUGUGTT against Trim37 | inactive: 0.682
GGAACCAGUGAUCUUCAAATT against Zim1 | inactive: -0.357
GCCAUACCUCACGAGAGCUTT against Mcpt8 | inactive: -1.87
GGUUUGUCAAUGAUACUAATT against Adam17 | active: 2.49
GGCUAUUUAUAAGUCCAGUTT against Uso1 | inactive: -0.307
CGAGAUAUAUAGUUGGAUCTT against Cpa5 | inactive: 0.0901
CCUGGGAUAUACAAAAAGATT against Srrm3 | inactive: -0.874
GGGCAUCCUGGAUCAUCAUTT against Nlrp6 | inactive: -1.64
GGUACUGGAAAUCUGUAUGTT against Nlgn1 | inactive: -0.332
CGAAAGAUGUCUACGUGCCTT against Mrpl27 | inactive: 1.71
GGACGAUUUUCCUCAAUAUTT against Pcdhgc4 | inactive: -0.403
CCAUCAAUGGGAUAACUAATT against Rnaseh1 | inactive: -0.219
CGGCAGAUGCAUUCAGGAUTT against Ccdc125 | inactive: 0.0172
GGGUUUCUUGAUUCUGACCTT against Ccl5 | active: -2.33
GGAAGAUAUUGGUAAAAACTT against Uba1y | inactive: 0.584

Sequence | z-score
GGGCCUGCUCUCUUUUCUGTT against Mfsd14b | inactive: 1.18
GGCCGAGGAGAAAUUCAUCTT against Mapk8ip3 | inactive: 0.344
GCGAUAUGAAUAUCAUCUUTT against Fbxo22 | inactive: -0.0727
GCAGGGCUUUAUAGGUUGUTT against Pigu | inactive: 0.266
GGCUGAGGUUCGAGUGUAUTT against Rps6ka4 | active: 3.51
GUCUGAGCGACUGUCUCCATT against Mef2b | active: -2.17
GGCAAAAAUUUUUUCAUGCTT against Abcb4 | inactive: -0.47
GGGAUCGAUCAAUCAUAACTT against Tfap2c | inactive: 0.72
GGCAUGAGGGCAAAUGAAATT against 4933434M16Rik | inactive: -0.707
AGACUCGUACACGCAGGAATT against Ggn | inactive: 0.882
CCCUCAGCAGCUCCAACAATT against Olfr739 | inactive: -0.125
GGUUUUUGUCACUAUAAGCTT against Trim52 | inactive: 0.638
GGCAGAGAAAUGGGCAAUGTT against Hcar1 | active: 2.12
GGUAAAAUUGUCCAAGGAATT against Clec2i | inactive: -0.109
GGGCUUUGAGAGCAUCUUATT against Nod2 | inactive: -0.731
GGGCUCUUUUUGGCGAAUATT against Foxk1 | inactive: -0.402
GCAUCAGCGUAAAAUGAUUTT against Sall3 | inactive: -0.469
GGACGACCUCAUUCUUUUUTT against Cfd | inactive: -0.479
GGCUAUGAGGCAAGUCAACTT against Zfp830 | inactive: -0.392
CGGAGUGUGAGCCAUUUUGTT against Pgap4 | inactive: -0.915
GGGUGACACCUUGUCCAACTT against Abcc6 | inactive: -1.13
GGAUUUGGACUCAAAACUATT against Pkig | inactive: -0.26
CGAUGACAGACCCUUUCUGTT against Slc2a8 | inactive: -0.698

Sequence | z-score
GGACCUGCAUUCUAAAUCATT against Cxcl3 | inactive: 1.39
GGCAAAAGCAUUGUCUCUGTT against Armc9 | inactive: -0.661
GCAAUGUACUACCAAGAAUTT against Gbe1 | inactive: -1.33
GCCCAUCUGAUGAAUACAATT against Mrto4 | inactive: 1.45
GCUGCAUUUGUGCUACUUUTT against Ska2 | inactive: -0.603
GCUGAGUCUCAUCAAAGUCTT against Qtrt2 | inactive: -1.04
CCACUACAGCAUUGUGACGTT against Enpp4 | inactive: -1.13
GGCAGCAGAGAAGAAAGCCTT against Pld3 | active: -3.16
GGAGAUGGAGCAGGAAGAGTT against Klhl22 | inactive: -0.419
GGUGGAAGUUUUCAGUGGCTT against Csrnp1 | inactive: 0.727
GCUUAGAAUCUCUGGACAATT against Rnf168 | active: 3.21
GGCAAACAGAGAGAAUACGTT against Il22ra1 | inactive: -1.04
GGGUAUGAGCAUAAAAUAATT against Il16 | inactive: -1.2
GGCAGACAACGUGUCACCUTT against Aldh1a3 | inactive: -0.883
GGGCCAUGCAAUCAUCAAGTT against Tlnrd1 | inactive: 0.353
CCCGGGAAUAAAUAAAGGCTT against Haglr | inactive: -0.308
CCGCUUUUGUCAAGUUUUCTT against Asap1 | active: 2.65
GGGACUGUAAUGUUGACACTT against Olfr560 | inactive: -0.863
CGGACUUGUUUUUUAGUCUTT against Tnrc18 | inactive: 0.164
GAGAAACCUGCCUCAUCUCTT against Spata3 | inactive: -0.0842
GCCGUUUGGUUUCGAACUUTT against Mboat2 | inactive: 1.17
GCUUUGGAACCUCCGAAUGTT against Ddb2 | inactive: 1.05

Given as labelled records: entries from further up
GGGUUUCUUGAUUCUGACCTT against Ccl5
  z-score: active: -2.33
GGCUAUGAGGCAAGUCAACTT against Zfp830
  z-score: inactive: -0.392
GGAUUUGGACUCAAAACUATT against Pkig
  z-score: inactive: -0.26
GCUGCAUUUGUGCUACUUUTT against Ska2
  z-score: inactive: -0.603
